# Reference: the supplement of paper PMC8728848
# Some of the results follow.
# Legend:
# Assay in all cases: glycan array binding signal (z-score within array); higher = stronger binding
# Details in all cases: glycan notation: IUPAC condensed, linker removed
# [1] = molecular target: Gal(b1-4)GlcNAc(b1-3)Gal(b1-3)GlcNAc
# Outline: (§1)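 Columns mapping to the same glycan were averaged after glycan names were converted to IUPAC-condensed notation. The data come from 3228 arrays in the Consortium for Functional Glycomics database, limited to those with an available protein sequence. Binding is reported as a within-array Z-score averaged across arrays of one protein sequence and across linkers.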
# [2] = molecular target: Gal(b1-4)GlcNAc(b1-3)Gal(b1-4)Glc
# Outline: as §1
# [3] = molecular target: Gal(b1-4)GlcNAc(b1-3)Gal(b1-4)GlcNAc
# Outline: as §1
# [4] = molecular target: Gal(b1-4)GlcNAc(b1-3)Gal(b1-4)GlcNAc(b1-2)Man(a1-3)[Gal(b1-4)GlcNAc(b1-3)Gal(b1-4)GlcNAc(b1-2)Man(a1-6)]Man(b1-4)GlcNAc(b1-4)GlcNAc
# Outline: as §1
# [5] = molecular target: Gal(b1-4)GlcNAc(b1-3)Gal(b1-4)GlcNAc(b1-2)Man(a1-3)[Gal(b1-4)GlcNAc(b1-3)Gal(b1-4)GlcNAc(b1-2)Man(a1-6)]Man(b1-4)GlcNAc(b1-4)[Fuc(a1-6)]GlcNAc
# Outline: as §1
# [6] = molecular target: Gal(b1-4)GlcNAc(b1-3)Gal(b1-4)GlcNAc(b1-2)[Gal(b1-4)GlcNAc(b1-3)Gal(b1-4)GlcNAc(b1-6)]Man(a1-6)[Gal(b1-4)GlcNAc(b1-3)Gal(b1-4)GlcNAc(b1-2)Man(a1-3)]Man(b1-4)GlcNAc(b1-4)GlcNAc
# Outline: as §1
# [7] = molecular target: Gal(b1-4)GlcNAc(b1-3)Gal(b1-4)GlcNAc(b1-2)[Gal(b1-4)GlcNAc(b1-3)Gal(b1-4)GlcNAc(b1-6)]Man(a1-6)[Gal(b1-4)GlcNAc(b1-3)Gal(b1-4)GlcNAc(b1-2)Man(a1-3)]Man(b1-4)GlcNAc(b1-4)[Fuc(a1-6)]GlcNAc
# Outline: as §1
# [8] = molecular target: Gal(b1-4)GlcNAc(b1-3)Gal(b1-4)GlcNAc(b1-3)Gal(b1-4)GlcNAc
# Outline: as §1
# [9] = molecular target: Gal(b1-4)GlcNAc(b1-3)Gal(b1-4)GlcNAc(b1-3)Gal(b1-4)GlcNAc(b1-2)Man(a1-3)[Gal(b1-4)GlcNAc(b1-3)Gal(b1-4)GlcNAc(b1-3)Gal(b1-4)GlcNAc(b1-2)Man(a1-6)]Man(b1-4)GlcNAc(b1-4)GlcNAc
# Outline: as §1
# [10] = molecular target: Gal(b1-4)GlcNAc(b1-3)Gal(b1-4)GlcNAc(b1-3)Gal(b1-4)GlcNAc(b1-2)Man(a1-3)[Gal(b1-4)GlcNAc(b1-3)Gal(b1-4)GlcNAc(b1-3)Gal(b1-4)GlcNAc(b1-2)Man(a1-6)]Man(b1-4)GlcNAc(b1-4)[Fuc(a1-6)]GlcNAc
# Outline: as §1
# [11] = molecular target: Gal(b1-4)GlcNAc(b1-3)Gal(b1-4)GlcNAc(b1-3)Gal(b1-4)GlcNAc(b1-2)[Gal(b1-4)GlcNAc(b1-3)Gal(b1-4)GlcNAc(b1-3)Gal(b1-4)GlcNAc(b1-6)]Man(a1-6)[Gal(b1-4)GlcNAc(b1-3)Gal(b1-4)GlcNAc(b1-3)Gal(b1-4)GlcNAc(b1-2)Man(a1-3)]Man(b1-4)GlcNAc(b1-4)[Fuc(a1-6)]GlcNAc
# Outline: as §1
# [12] = molecular target: Gal(b1-4)GlcNAc(b1-3)Gal(b1-4)GlcNAc(b1-3)Gal(b1-4)GlcNAc(b1-3)Gal(b1-4)GlcNAc(b1-2)Man(a1-3)[Gal(b1-4)GlcNAc(b1-3)Gal(b1-4)GlcNAc(b1-3)Gal(b1-4)GlcNAc(b1-3)Gal(b1-4)GlcNAc(b1-2)Man(a1-6)]Man(b1-4)GlcNAc(b1-4)GlcNAc
# Outline: as §1
# [13] = molecular target: Gal(b1-4)GlcNAc(b1-3)Gal(b1-4)GlcNAc(b1-3)Gal(b1-4)GlcNAc(b1-3)Gal(b1-4)GlcNAc(b1-2)Man(a1-3)[Gal(b1-4)GlcNAc(b1-3)Gal(b1-4)GlcNAc(b1-3)Gal(b1-4)GlcNAc(b1-3)Gal(b1-4)GlcNAc(b1-2)Man(a1-6)]Man(b1-4)GlcNAc(b1-4)[Fuc(a1-6)]GlcNAc
# Outline: as §1
# [14] = molecular target: Gal(b1-4)GlcNAc(b1-3)Gal(b1-4)GlcNAc(b1-3)Gal(b1-4)GlcNAc(b1-3)Gal(b1-4)GlcNAc(b1-2)[Gal(b1-4)GlcNAc(b1-3)Gal(b1-4)GlcNAc(b1-3)Gal(b1-4)GlcNAc(b1-3)Gal(b1-4)GlcNAc(b1-6)]Man(a1-6)[Gal(b1-4)GlcNAc(b1-3)Gal(b1-4)GlcNAc(b1-3)Gal(b1-4)GlcNAc(b1-3)Gal(b1-4)GlcNAc(b1-2)Man(a1-3)]Man(b1-4)GlcNAc(b1-4)[Fuc(a1-6)]GlcNAc
# Outline: as §1
# [15] = molecular target: Gal(b1-4)GlcNAc(b1-3)Gal(b1-4)GlcNAc(b1-3)Gal(b1-4)GlcNAc(b1-3)Gal(b1-4)GlcNAc(b1-3)Gal(b1-4)GlcNAc(b1-2)Man(a1-3)[Gal(b1-4)GlcNAc(b1-3)Gal(b1-4)GlcNAc(b1-3)Gal(b1-4)GlcNAc(b1-3)Gal(b1-4)GlcNAc(b1-3)Gal(b1-4)GlcNAc(b1-2)Man(a1-6)]Man(b1-4)GlcNAc(b1-4)GlcNAc
# Outline: as §1
# [16] = molecular target: Gal(b1-4)GlcNAc(b1-3)Gal(b1-4)GlcNAc(b1-3)Gal(b1-4)GlcNAc(b1-3)Gal(b1-4)GlcNAc(b1-3)Gal(b1-4)GlcNAc(b1-2)Man(a1-3)[Gal(b1-4)GlcNAc(b1-3)Gal(b1-4)GlcNAc(b1-3)Gal(b1-4)GlcNAc(b1-3)Gal(b1-4)GlcNAc(b1-3)Gal(b1-4)GlcNAc(b1-2)Man(a1-6)]Man(b1-4)GlcNAc(b1-4)[Fuc(a1-6)]GlcNAc
# Outline: as §1
# [17] = molecular target: Gal(b1-4)GlcNAc(b1-3)Gal(b1-4)GlcNAc(b1-3)Gal(b1-4)GlcNAc(b1-3)Gal(b1-4)GlcNAc(b1-3)Gal(b1-4)GlcNAc(b1-2)[Gal(b1-4)GlcNAc(b1-3)Gal(b1-4)GlcNAc(b1-3)Gal(b1-4)GlcNAc(b1-3)Gal(b1-4)GlcNAc(b1-3)Gal(b1-4)GlcNAc(b1-6)]Man(a1-6)[Gal(b1-4)GlcNAc(b1-3)Gal(b1-4)GlcNAc(b1-3)Gal(b1-4)GlcNAc(b1-3)Gal(b1-4)GlcNAc(b1-3)Gal(b1-4)GlcNAc(b1-2)Man(a1-3)]Man(b1-4)GlcNAc(b1-4)[Fuc(a1-6)]GlcNAc
# Outline: as §1
# [18] = molecular target: Gal(b1-4)GlcNAc(b1-3)Gal(b1-4)GlcNAc(b1-3)Gal(b1-4)GlcNAc(b1-3)Gal(b1-4)GlcNAc(b1-3)Gal(b1-4)GlcNAc(b1-3)Gal(b1-4)GlcNAc(b1-2)Man(a1-3)[Gal(b1-4)GlcNAc(b1-3)Gal(b1-4)GlcNAc(b1-3)Gal(b1-4)GlcNAc(b1-3)Gal(b1-4)GlcNAc(b1-3)Gal(b1-4)GlcNAc(b1-3)Gal(b1-4)GlcNAc(b1-2)Man(a1-6)]Man(b1-4)GlcNAc(b1-4)GlcNAc
# Outline: as §1
# [19] = molecular target: Gal(b1-4)GlcNAc(b1-3)Gal(b1-4)GlcNAc(b1-3)GalNAc
# Outline: as §1
binder,measurement,setting,value
"AT3G44510(29) (Arabidopsis thaliana), F4J341 (protein) MEEHLQGRIKLHDGRYLAYKERGVPKDDAKFTIVLVHGFGSSKDMNFNVSQELVNEIGIYFVLYDRAGYGESDPNPKRSLKSEAYDVQELADGLEIGSRFYLIGISMGSYTVWSCLKHIPQRLAGVAMVAPVVNFRWPSIPKSLMPKDYRREVAKWSVWIANYFPGLLQWLVTQNMFSTTSMLEKNPVYFNDQDIEVLKHIKGFPMLTKEKLRERGVFGTLRSDFLVAFGDWDFDPADLPDPSLSGPEKGSSSVHIWQGYEDKVMPFQLQRCLCRKLPWIRYHEVPKGGHLIVHYDGICDAILKSLLLGEDLPMYKPKAVITEPA",glycan array binding signal (z-score),[1],-0.443
same,glycan array binding signal (z-score),[2],0.133
same,glycan array binding signal (z-score),[3],0.198
same,glycan array binding signal (z-score),[4],-0.101
same,glycan array binding signal (z-score),[5],0.664
same,glycan array binding signal (z-score),[6],-0.242
same,glycan array binding signal (z-score),[7],-0.519
same,glycan array binding signal (z-score),[8],-0.803
same,glycan array binding signal (z-score),[9],-0.211
same,glycan array binding signal (z-score),[10],-0.156
same,glycan array binding signal (z-score),[11],0.142
same,glycan array binding signal (z-score),[12],-0.195
same,glycan array binding signal (z-score),[13],-0.53
same,glycan array binding signal (z-score),[14],0.247
same,glycan array binding signal (z-score),[15],-0.625
same,glycan array binding signal (z-score),[16],-0.499
same,glycan array binding signal (z-score),[17],-0.053
same,glycan array binding signal (z-score),[18],0.658
same,glycan array binding signal (z-score),[19],-0.258

# Part of the list above, with tabs:
binder	measurement	setting	value
AT3G44510(29) (Arabidopsis thaliana), F4J341 (protein) MEEHLQGRIKLHDGRYLAYKERGVPKDDAKFTIVLVHGFGSSKDMNFNVSQELVNEIGIYFVLYDRAGYGESDPNPKRSLKSEAYDVQELADGLEIGSRFYLIGISMGSYTVWSCLKHIPQRLAGVAMVAPVVNFRWPSIPKSLMPKDYRREVAKWSVWIANYFPGLLQWLVTQNMFSTTSMLEKNPVYFNDQDIEVLKHIKGFPMLTKEKLRERGVFGTLRSDFLVAFGDWDFDPADLPDPSLSGPEKGSSSVHIWQGYEDKVMPFQLQRCLCRKLPWIRYHEVPKGGHLIVHYDGICDAILKSLLLGEDLPMYKPKAVITEPA	glycan array binding signal (z-score)	[4]	-0.101
same	glycan array binding signal (z-score)	[5]	0.664
